Measurements taken from patent US20210395379A1.
Results are given in words; binding and its absence hold for the method and conditions named. Some results given as binding are weak or reduced against the parent protein; the word gives no strength.

The chains behind the UniProt entries cited, without tags or fusion partners. Where a name states a change or a piece, a line headed by the entry shows the natural chain unless it says otherwise. Residues count along the entry.
UniProt Q07011: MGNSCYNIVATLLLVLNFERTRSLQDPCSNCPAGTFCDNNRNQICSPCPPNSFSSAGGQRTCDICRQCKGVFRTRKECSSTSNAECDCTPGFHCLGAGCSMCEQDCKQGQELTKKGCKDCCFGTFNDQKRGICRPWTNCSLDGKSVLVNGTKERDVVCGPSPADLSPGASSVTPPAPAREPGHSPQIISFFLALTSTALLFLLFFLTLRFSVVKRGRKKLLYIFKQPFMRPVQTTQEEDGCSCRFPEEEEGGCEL
UniProt P41273, residues 50-254: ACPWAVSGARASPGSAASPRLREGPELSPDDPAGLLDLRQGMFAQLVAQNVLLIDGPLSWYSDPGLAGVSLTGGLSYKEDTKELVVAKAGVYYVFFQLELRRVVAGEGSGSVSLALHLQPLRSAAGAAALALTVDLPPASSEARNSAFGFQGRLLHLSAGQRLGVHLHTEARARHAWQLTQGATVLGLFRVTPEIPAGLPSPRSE

Molecular target: human CD137 extracellular domain (Peprotech, cat. 310-15-1MG) (human) (UniProt Q07011)
Assay: flow cytometry; binder captured on protein G beads, R-PE labelled CD137 ECD

binding: binds
Substance: CD137L ECD fused to the Fc part of a human IgG1 (from UniProt P41273 50-254) (Fc fusion)
